The record followed here is PMC3105080.

Protein sequences, listed by entry. Tags and fused reporters are not part of them. Residues count along the entry.
UniProt Q4ZJM7, residues 24-482: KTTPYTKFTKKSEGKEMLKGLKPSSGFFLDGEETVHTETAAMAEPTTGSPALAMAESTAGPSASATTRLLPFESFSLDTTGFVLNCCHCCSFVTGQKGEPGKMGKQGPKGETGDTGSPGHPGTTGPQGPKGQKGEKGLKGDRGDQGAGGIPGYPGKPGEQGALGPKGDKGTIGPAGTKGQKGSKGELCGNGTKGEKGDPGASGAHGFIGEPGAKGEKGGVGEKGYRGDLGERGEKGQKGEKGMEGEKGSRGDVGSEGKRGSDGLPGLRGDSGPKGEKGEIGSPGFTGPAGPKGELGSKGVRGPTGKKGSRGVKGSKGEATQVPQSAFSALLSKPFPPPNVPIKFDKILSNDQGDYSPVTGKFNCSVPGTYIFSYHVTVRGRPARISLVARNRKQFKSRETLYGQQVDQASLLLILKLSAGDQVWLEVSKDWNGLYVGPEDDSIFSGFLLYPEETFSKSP

No constants are given. Whether binding was seen depends on the method and setting. In cells and extracts the contact can be indirect. Some entries that bind do so weakly or less than the wild type. Tags and fused reporters may be left off the sequences shown.

The target of the test is T1, otoconin-90 (Oc90), full-length, FLAG-tagged (mouse) (UniProt Q9Z0L3).
T1 sequence: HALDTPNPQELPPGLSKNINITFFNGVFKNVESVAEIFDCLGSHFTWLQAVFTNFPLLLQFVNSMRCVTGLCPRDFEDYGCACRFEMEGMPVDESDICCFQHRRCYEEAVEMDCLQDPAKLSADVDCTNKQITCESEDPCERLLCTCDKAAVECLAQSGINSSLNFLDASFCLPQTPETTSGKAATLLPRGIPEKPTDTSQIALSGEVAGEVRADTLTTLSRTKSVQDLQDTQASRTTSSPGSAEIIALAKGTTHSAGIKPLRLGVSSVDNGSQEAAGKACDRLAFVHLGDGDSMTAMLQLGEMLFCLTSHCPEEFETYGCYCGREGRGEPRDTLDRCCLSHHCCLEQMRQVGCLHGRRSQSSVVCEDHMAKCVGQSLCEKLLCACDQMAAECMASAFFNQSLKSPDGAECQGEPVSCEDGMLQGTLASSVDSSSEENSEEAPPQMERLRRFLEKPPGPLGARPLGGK
Put plainly: co-IP; HEK293 cells co-transfected with Oc90-FLAG and otolin or its domains; lysed in hypotonic buffer (10 mM Tris-HCl pH 7.5, 10 mM NaCl, 2 mM EDTA, 0.5% Triton-X-100), then 150 mM NaCl; anti-FLAG M2 beads 6 h at 4°C, washed 3 times with TBS; Western blot with otolin and Oc90 antibodies. On the technique in general: Immunoblotting shows a protein as a band on a membrane.

“otolin-1 (otolin), full-length (from UniProt Q4ZJM7 24-482)”: the binding entry is on record as “binds”.
